Test results reported in patent US20240409663A1 (CONCEPT TO MEDICINE BIOTECH, published 2024).
These are yes or no findings as the source states them, for the method shown. Some entries that bind do so weakly or less than the wild type.

Sequences of proteins named here, by UniProt entry; tags and fusion partners are left off. A change or cut given only in a name is not applied to a line headed by its entry. Residues count along the entry.
UniProt Q8CFZ4: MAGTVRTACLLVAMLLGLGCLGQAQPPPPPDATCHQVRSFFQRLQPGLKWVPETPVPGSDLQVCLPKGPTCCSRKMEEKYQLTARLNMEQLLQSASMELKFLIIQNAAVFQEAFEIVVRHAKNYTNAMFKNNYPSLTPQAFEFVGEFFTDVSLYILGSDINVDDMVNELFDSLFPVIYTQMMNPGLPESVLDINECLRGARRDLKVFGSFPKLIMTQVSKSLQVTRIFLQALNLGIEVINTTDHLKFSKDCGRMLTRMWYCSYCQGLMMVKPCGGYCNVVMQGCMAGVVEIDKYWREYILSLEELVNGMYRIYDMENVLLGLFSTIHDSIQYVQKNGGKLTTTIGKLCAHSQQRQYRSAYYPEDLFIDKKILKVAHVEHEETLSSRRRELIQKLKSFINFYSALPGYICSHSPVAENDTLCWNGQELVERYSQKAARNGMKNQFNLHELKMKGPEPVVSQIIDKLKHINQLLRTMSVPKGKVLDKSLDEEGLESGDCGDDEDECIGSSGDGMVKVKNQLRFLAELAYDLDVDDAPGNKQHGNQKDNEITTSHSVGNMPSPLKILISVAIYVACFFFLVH
UniProt P51654, residues 25-559: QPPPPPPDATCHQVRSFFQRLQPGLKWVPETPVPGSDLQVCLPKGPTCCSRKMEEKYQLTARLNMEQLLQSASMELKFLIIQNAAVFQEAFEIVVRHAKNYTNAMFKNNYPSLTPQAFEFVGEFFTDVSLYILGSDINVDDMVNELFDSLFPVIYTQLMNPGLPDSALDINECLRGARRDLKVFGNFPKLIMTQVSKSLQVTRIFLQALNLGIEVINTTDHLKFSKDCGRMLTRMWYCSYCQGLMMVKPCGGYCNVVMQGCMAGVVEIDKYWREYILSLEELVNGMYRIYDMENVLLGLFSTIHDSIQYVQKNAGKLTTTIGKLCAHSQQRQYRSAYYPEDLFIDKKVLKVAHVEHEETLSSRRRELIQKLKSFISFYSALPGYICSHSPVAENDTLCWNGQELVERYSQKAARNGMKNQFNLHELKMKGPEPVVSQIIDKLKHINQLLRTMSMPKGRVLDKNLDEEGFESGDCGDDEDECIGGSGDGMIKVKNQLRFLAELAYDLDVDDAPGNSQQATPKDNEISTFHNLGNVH

How the values were obtained:
mouse GPC3 protein [1] = target: T1, mouse GPC3 protein (mouse, UniProt Q8CFZ4 25-558, limits assumed); assay: ELISA (legend of FIG. 3)
T1 construct: protein coated on plates in the cross species ELISA

[2] = target: T2, human GPC3 protein (ELISA coat) (human, UniProt P51654 25-559, limits assumed); assay: ELISA (legend of FIG. 3)
T2 construct: protein coated on plates in the cross species ELISA

mouse GPC3 protein [3] = target: T1, mouse GPC3 protein; assay: ELISA, coated GPC3
[4] = target: T2, human GPC3 protein (ELISA coat); assay: ELISA, coated GPC3

Measured: binding

B1: 52H5D3B8 chimeric mAb (antibody, V domains shown)
VH: QVQLQQSGAELVRPGASVKLSCKALGYTFTDYEMHWVKQTPVHGLEWIGAIHPGSGGTAYNQKFKGKATLTADKFSSTGYMELSSLTSEDSAVYYCTRFYSYAYWGQGTLVTVSA
VL: DVVMTQTPLSLPVSLGDQASISCRSSQSLVHSNGNTYLQWYLQKPGQSPKLLIYKVSNRFSGVPDRFSGSGSGTDFILKISRVEAEDLGVYFCSQSIHVPYTFGGGTKLEIK
notes: also called 52H5D3B8-VH+VL; chimeric 52H5D3B8 mAb
binds: all assays above
